In US9388419B2 (The Regents of the University of Colorado, a body corporate, priority 2009, dated 2016):
Like-named read-outs stand apart in the source and are kept apart here. Further values from the same series stand in other lists.

System: E. coli
Assay type: cell-based, Escherichia coli
Conditions: anaerobic
Method: For MIC evaluations, the final results are expressed in chemical agent concentrations determined by analysis of the stock solution by HPLC (i.e., see Subsection Mb).
The minimum inhibitory concentration (MIC) was determined anaerobically in a 96 well-plate format. […] Media supplements were added according to levels reported in the Supplements Table, where specified. Overnight cultures of strains were grown in triplicate in 5 mL LB (with antibiotic where appropriate). A 1% (v/v) inoculum was introduced into a 5 ml culture of M9 minimal media.

Measured: % Increase Over Control

O=C(O)CCO [3-HP, 3-hydroxypropionic acid]
20%: strain BX_00311.0: BW25113 wild type + pSmart-LC-Kan-glyA-ORF, M9 + Kan 20 μg/mL
33%: strain BX_00321.0: BW25113 wild type + pK223-ct-his-thrA, M9 + Amp 100 μg/mL + 1 mM IPTG | strain BX_00323.0: BW25113 wild type + pJ61-aroG, M9 + Kan 20 μg/mL | strain BX_00324.0: BW25113 wild type + pJ61-thrA, M9 + Kan 20 μg/mL | strain BX_00325.0: BW25113 wild type + pJ61-asd, M9 + Kan 20 μg/mL | strain BX_00326.0: BW25113 wild type + pJ61-ilvA, M9 + Kan 20 μg/mL | strain BX_00327.0: BW25113 wild type + pJ61-cysM, M9 + Kan 20 μg/mL | strain BX_00357.0: BW25113 wild type + pKK223-aroH*445, M9 + Amp 100 μg/mL + 1 mM IPTG | strain BX_00358.0: BW25113 wild type + pKK223-aroH*447, M9 + Amp 100 μg/mL + 1 mM IPTG | strain BX_00359.0: BW25113 wild type + pKK223-aroH*457, M9 + Amp 100 μg/mL + 1 mM IPTG | strain BX_00360.0: BW25113 wild type + pACYC177(Kan only)-cynTS, M9 + Kan 20 μg/mL | strain BX_00362.0: BW25113 wild type + pACYC177(Kan only)-aroH, M9 + Kan 20 μg/mL + 1 mM IPTG | strain BX_00363.0: BW25113 wild type + pACYC177(Kan only)-speB, M9 + Kan 20 μg/mL | strain BX_00364.0: BW25113 wild type + pACYC177(Kan only)-metE, M9 + Kan 20 μg/mL + 1 mM IPTG | strain BX_00365.0: BW25113 wild type + pACYC177(Kan only)-metC, M9 + Kan 20 μg/mL | strain BX_00368.0: BW25113 wild type + pBT-3-cynTS, M9 + Cm (20 μg/mL)
150%: BW25113, EZ Rich media, no supplement, versus M9 control
67%: strain BX_00322.0: BW25113 wild type + pJ61-speFED, M9 + Kan 20 μg/mL
